Test [1] addresses IQ motif-containing GTPase-activating protein 1 (IQGAP1) (mouse (endogenous in macrophages)) (UniProt Q9JKF1). As to the kind of experiment: co-IP; IP of endogenous IQGAP1 from lysates of LPS-stimulated Pggt1b^Δ/Δ macrophages (NP-40 buffer: 150 mM NaCl, 1% NP40, 10% glycerol, 10 mM Tris-HCl pH 8; Protein G Sepharose), Western blot for Pyrin and IQGAP1.
For test [2] the target is unchanged. As to the kind of experiment: condition: only cells pretreated with Bryostatin (BST); co-IP; as a1, macrophages pretreated with the protein kinase C activator Bryostatin (BST) before LPS.
Test [3] has the same target. The test is described as follows: condition: only cells pretreated with the RAC1 inhibitor EHT1864; co-IP; as a1, macrophages pretreated with the RAC1 inhibitor EHT1864 before LPS.
Test [4] shares this target. As to the kind of experiment: condition: only cells pretreated with arachidonic acid (AA); co-IP; as a1, macrophages pretreated with the protein kinase C activator arachidonic acid (AA) before LPS.

Chains of the proteins cited; added tags and fusions are not shown.
UniProt Q9JKF1: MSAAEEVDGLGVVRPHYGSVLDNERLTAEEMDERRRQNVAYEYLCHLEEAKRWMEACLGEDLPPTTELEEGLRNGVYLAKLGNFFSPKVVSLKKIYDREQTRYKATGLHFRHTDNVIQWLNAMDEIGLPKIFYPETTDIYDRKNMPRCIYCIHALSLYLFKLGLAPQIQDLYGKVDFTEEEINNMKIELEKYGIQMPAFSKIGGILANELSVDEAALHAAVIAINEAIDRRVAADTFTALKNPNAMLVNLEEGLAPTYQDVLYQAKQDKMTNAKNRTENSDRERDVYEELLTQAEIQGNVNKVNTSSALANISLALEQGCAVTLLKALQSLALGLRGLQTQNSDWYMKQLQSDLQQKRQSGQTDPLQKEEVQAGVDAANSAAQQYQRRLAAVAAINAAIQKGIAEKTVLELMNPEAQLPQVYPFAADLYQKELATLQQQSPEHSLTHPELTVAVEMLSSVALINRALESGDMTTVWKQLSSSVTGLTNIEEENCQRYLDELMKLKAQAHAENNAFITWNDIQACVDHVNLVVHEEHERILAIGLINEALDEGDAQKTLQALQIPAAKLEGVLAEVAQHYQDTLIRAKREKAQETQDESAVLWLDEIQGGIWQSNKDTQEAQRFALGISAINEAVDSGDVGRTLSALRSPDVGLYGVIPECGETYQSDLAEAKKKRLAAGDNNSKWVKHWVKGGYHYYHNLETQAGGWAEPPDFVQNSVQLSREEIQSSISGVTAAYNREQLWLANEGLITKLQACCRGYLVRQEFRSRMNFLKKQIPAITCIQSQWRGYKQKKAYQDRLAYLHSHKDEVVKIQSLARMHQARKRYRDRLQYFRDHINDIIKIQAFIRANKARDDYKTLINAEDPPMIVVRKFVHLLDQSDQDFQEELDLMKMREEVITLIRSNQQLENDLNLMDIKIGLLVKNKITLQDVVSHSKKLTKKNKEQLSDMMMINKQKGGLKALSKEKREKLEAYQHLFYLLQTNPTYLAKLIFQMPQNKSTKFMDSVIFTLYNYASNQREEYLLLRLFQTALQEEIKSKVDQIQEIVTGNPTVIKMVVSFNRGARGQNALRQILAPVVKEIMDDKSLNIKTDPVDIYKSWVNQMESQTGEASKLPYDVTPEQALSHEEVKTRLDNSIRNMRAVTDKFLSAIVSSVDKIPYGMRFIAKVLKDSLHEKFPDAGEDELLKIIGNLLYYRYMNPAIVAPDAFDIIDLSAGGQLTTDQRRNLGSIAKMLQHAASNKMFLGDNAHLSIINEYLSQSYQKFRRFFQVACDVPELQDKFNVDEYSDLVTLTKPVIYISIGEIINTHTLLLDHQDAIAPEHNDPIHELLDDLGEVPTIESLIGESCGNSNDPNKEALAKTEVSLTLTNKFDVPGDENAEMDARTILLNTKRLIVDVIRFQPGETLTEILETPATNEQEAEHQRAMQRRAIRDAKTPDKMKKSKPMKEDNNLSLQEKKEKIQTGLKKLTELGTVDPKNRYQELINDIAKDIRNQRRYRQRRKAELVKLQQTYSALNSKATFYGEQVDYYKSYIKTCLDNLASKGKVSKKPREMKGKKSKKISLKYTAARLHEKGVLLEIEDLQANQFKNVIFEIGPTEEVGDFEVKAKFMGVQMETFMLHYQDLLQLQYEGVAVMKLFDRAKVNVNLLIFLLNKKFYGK

No constants are given. Whether binding was seen depends on the method and setting. In cells and extracts the contact can be indirect. Some binding calls cover weakened binding; strength is not graded here.

B1: Pyrin (protein, UniProt Q9JJ26 1-767)
chain: MAKTLGDHLLNTLEELLPYDFEKFKFKLQNTSLEKGHSKIPRGHMQMARPVKLASLLITYYGEEYAVRLTLQILRATNQRQLAEELRKATGTEHLIEENRVGGSVQSSVENKAKSVKVPDVPEGDGTQQNNDESDTLPSSQAEVGKGPQKKSLTKRKDQRGPESLDSQTKPWTRSTAPLYRRTQGTQSPGDKESTASAQLRRNVSSAGRLQGLYNNAPGRRESKKAEVYVYLPSGKKRPRSLEITTYSREGEPPNSEVLPTQEETRNGSLIRMRTATLNGRTTGALEKGTGIPEHSMVLDEKTFRNMSSKTSLIGEERCPTSWTENGNGSPETTESSGETAGSILSDPEVPLSLCEKPAKTPEDPASLGQAACEGRSQDKAVCPLCHTQEGDLRGDTCVQSSCSCSIAPGDPKASGRCSICFQCQGLLARKSCEAQSPQSLPQCPRHMKQVLLLFCEDHREPICLICRLSLEHQGHRVRPIEEAALEYKEQIREQLERLREMRGYVEEHRLQGDKKTDDFLKQTEIQKQKISCPLEKLYQLLEKQEQLFVTWLQELSQTISKVRETYYTRVSLLDEMIEELEAKQDQPEWDLMQDIGITLHRAKMMSASELLDTPPGVKEKLHLLYQKSKSVEKNMQCFSEMLSSEMAFSASDVAKWEGRQPSATQVQGLVPTVHLKCDGAHTQDCDVVFYPEREAGGSEPKDYLHPQPAQDTPELHEIHSRNNKRKFKSFLKWKPSFSRTDWRLRTCCYRDLDQAAAHPNLIFSMI
Consider B1, for which the binding entry in test [1] was “binds”; in test [2] it was “no binding”; in test [3], “no binding”; in test [4], “no binding”.

For the origin of these results see publication PMC12514176.
